# Variants at the floor of the assay are shown more often than the library holds them.
# B1: tRNA (parent)
# chain: GUUCCGUUGGCGUAAUGGUAACGCGUCUCCCUCCUAAGGAGAAGACUGCGGGUUCGAGUCCCGUACGGAACG
# Variants of: B1
# Test: yeast fitness relative to wild type (ratio to wild type); higher = fitter; tRNA-Arg(CCU), competitive growth, 37 C, YPD
# Method in brief: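 A pool of Saccharomyces cerevisiae strains, each with a tRNA-Arg(CCU) gene variant at the native genomic locus, was competed in YPD at 37°C for 24 hours across six parallel replicates. The variants had been chemically synthesised at a 3% per-site mutation rate over 69 sites, and gene amplicons before and after competition were read by 100-nucleotide paired-end sequencing. Darwinian fitness relative to wild type rested on changes in genotype frequencies. Genotypes required ≥ 100 starting reads, and estimates < 0.5 were set to 0.5.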
row,Variant,yeast fitness
1,G18C C30G U32C C62A,≤ 0.5
2,G18C C31A G58A C61G,≤ 0.5
3,G18C C31U A43U U59C,≤ 0.5
4,G18C C33U A37U,≤ 0.5
5,G18C C34U A69C,≤ 0.5
6,G18C C49A U54A A57G,≤ 0.5
7,G18C C49U G58C C62G A69C,≤ 0.5
8,G18C C55A,≤ 0.5
9,G18C G25C,0.677
10,G18C G25C U28G A42G C49U A57U G63A,≤ 0.5
11,G18C G38A A43U A45G A57G U59C,≤ 0.5
12,G18C G48A C66U,0.545
13,G18C G58C C61U G68A,≤ 0.5
14,G18C G63A,0.535
15,G18C U19A U28G A40C C62G,≤ 0.5
16,G18U C34U,≤ 0.5
17,U19A A20C A21G C30G C55G,0.573
18,U19A A21G,0.987
19,U19A A21G C29G C46A,≤ 0.5
20,U19A A57G A69C A70G,≤ 0.5
21,U19A A70U,1.03
22,U19A C22A G41A G56C C66A,≤ 0.5
23,U19A C22G G23C C30G C34A,0.519
24,U19A C22U C30A C31U A36G G50A A65G C66U,≤ 0.5

row,Variant,yeast fitness
1,U19A C22U U35C A40U G51C C66U A70G,≤ 0.5
2,U19A C24A C31G C62U G68C,0.535
3,U19A C24U C29A,≤ 0.5
4,U19A C27A C31A U32C A57C,≤ 0.5
5,U19A C27A C46A,0.506
6,U19A C29A U47A G51A U54G C60U C62U,≤ 0.5
7,U19A C30G C61G,≤ 0.5
8,U19A C49G G56U,0.558
9,U19A G41A C55G G58U,≤ 0.5
10,U19A U26C C30A A43C,≤ 0.5
11,U19A U26C C49G C66G,≤ 0.5
12,U19A U28A G50C G56A,≤ 0.5
13,U19A U35A G39A,≤ 0.5
14,U19A U35A G44C G48C C55A C66G,≤ 0.5
15,U19C A20C A21U C29U A40C C49G G63A,≤ 0.5
16,U19C A20C A21U C55U,≤ 0.5
17,U19C A20C C31G G48A,≤ 0.5
18,U19C A20C C33U U35A G58A,≤ 0.5
19,U19C A20G G23C G50A,≤ 0.5
20,U19C A21C C27U C61G,≤ 0.5
21,U19C A21U C55U,≤ 0.5
22,U19C A43G G44C A45C,≤ 0.5
23,U19C A43U G48C U54C C61G,≤ 0.5
24,U19C A45G C62U,0.953

row,Variant,yeast fitness
1,U19C C22A G25A U35G,≤ 0.5
2,U19C C22G,0.978
3,U19C C22U G25C C27G A40C A65U,≤ 0.5
4,U19C C27G G51A C62U,≤ 0.5
5,U19C C29U G38C,≤ 0.5
6,U19C C31G A65U,0.596
7,U19C C60G C66G A69G,≤ 0.5
8,U19C C62A,0.713
9,U19C G23C U53C G67C,≤ 0.5
10,U19C G25A C55U A69C,≤ 0.5
11,U19C G50A G56A,0.749
12,U19G A36C A65G,≤ 0.5
13,U19G C22U A37G C66U A69U,0.61
14,U19G C22U A70U,0.746
15,U19G C24A C34G,0.75
16,U19G C27G A65C C66G,0.907
17,U19G C31U U32A A45U A70U,≤ 0.5
18,U19G C33U A42U C61U,≤ 0.5
19,U19G C55G A69U,0.54
20,U19G C62U,0.857
21,A20C A21U C29A A45U,≤ 0.5
22,A20C A36C G50C U64G,≤ 0.5
23,A20C A40G C62G,0.864
24,A20C A40G U47G,≤ 0.5

row,Variant,yeast fitness
1,A20C A45G A65U C66G,≤ 0.5
2,A20C A57C C60A,≤ 0.5
3,A20C C22U G58A G67A,≤ 0.5
4,A20C C24A C29U,≤ 0.5
5,A20C C24G U35A C60G,≤ 0.5
6,A20C C27A C30A C31U,≤ 0.5
7,A20C C30G C31A G50A U54C U59A,≤ 0.5
8,A20C C30G C62A,≤ 0.5
9,A20C C31G G48A G50C C60G,0.722
10,A20C C31G G52A A69C,≤ 0.5
11,A20C C33A G41C A45U,≤ 0.5
12,A20C C33G A40C A45U,≤ 0.5
13,A20C C34A A45G A65U C66G,≤ 0.5
14,A20C C34A C49U G63C,≤ 0.5
15,A20C C34G,0.527
16,A20C C34G A43C A45U,≤ 0.5
17,A20C C34G C66U,≤ 0.5
18,A20C C34U G52A,0.574
19,A20C C46A C49G G63A,≤ 0.5
20,A20C C55U G67C,≤ 0.5
21,A20C C60A,0.587
22,A20C G23C G56C A65C G68A,≤ 0.5
23,A20C G38A G41A,≤ 0.5
24,A20C G39C G48U C49U,≤ 0.5

row,Variant,yeast fitness
1,A20C G44C A70U,0.573
2,A20C U26G C55A,≤ 0.5
3,A20C U28G A69C,0.714
4,A20C U28G C55G,≤ 0.5
5,A20C U32G U53A A57C C62U,≤ 0.5
6,A20C U35A A36G G44C G48A A57C,≤ 0.5
7,A20C U35A A36G G44C U54C A57C,≤ 0.5
8,A20C U47A C61G C66G,≤ 0.5
9,A20C U47A G48C,0.526
10,A20G A21C G38C G56A,≤ 0.5
11,A20G A21C U28C C61A A69U,≤ 0.5
12,A20G A43C G48A A70U,≤ 0.5
13,A20G A43G,1.07
14,A20G A43U U47C C61G,≤ 0.5
15,A20G C22G A45C C46G A57U A65G,≤ 0.5
16,A20G C22G C27G C30U C31G G51C C61A A69C,≤ 0.5
17,A20G C22G G38C A42C G63A,≤ 0.5
18,A20G C22U G51A,≤ 0.5
19,A20G C24G C27U C66A,≤ 0.5
20,A20G C24U C33U A43C C55A U59C,0.539
21,A20G C27G U47G C62U A65U,≤ 0.5
22,A20G C29A A70C,≤ 0.5
23,A20G C29A U47C G50C A57C,≤ 0.5
24,A20G C29G A40U,≤ 0.5

row,Variant,yeast fitness
1,A20G C29G C33A,≤ 0.5
2,A20G C31U A42U C46U A65C,≤ 0.5
3,A20G C34A A36G,≤ 0.5
4,A20G C34G U47C,≤ 0.5
5,A20G C34U U47G G52A G58C C62A,≤ 0.5
6,A20G C55U,0.82
7,A20G C60U C61G,≤ 0.5
8,A20G G23A C30G C55U G63A,≤ 0.5
9,A20G G23C U26A G38C A70C,≤ 0.5
10,A20G G25A A43U A69U,≤ 0.5
11,A20G G38A C46U G52C A57C U59A,≤ 0.5
12,A20G G38C C46U G63U,≤ 0.5
13,A20G G39C A45C C49G,≤ 0.5
14,A20G G41A C62G,≤ 0.5
15,A20G G50A U59C,0.571
16,A20G G58U A65G G67A,≤ 0.5
17,A20G U35C A36G A42U,≤ 0.5
18,A20G U47G C49A A69U,≤ 0.5
19,A20G U59A A70C,0.646
20,A20U A21C A36C A70C,≤ 0.5
21,A20U A21C G51C U59G,≤ 0.5
22,A20U A21G C27G C60G A69G,≤ 0.5
23,A20U A21U C62A,≤ 0.5
24,A20U A36C C60A,≤ 0.5

row,Variant,yeast fitness
1,A20U A37G A45G G51C,≤ 0.5
2,A20U A37G C66A,≤ 0.5
3,A20U A40C C46U C55G A70U,≤ 0.5
4,A20U A42U C49U U59A,≤ 0.5
5,A20U A43G G58C C62U,≤ 0.5
6,A20U C22G A57G,≤ 0.5
7,A20U C22G G23A A43U G50A,≤ 0.5
8,A20U C24U,0.841
9,A20U C27A A37C,≤ 0.5
10,A20U C27A A40C C46A,≤ 0.5
11,A20U C29A,0.797
12,A20U C29G A42G A45G A69U,≤ 0.5
13,A20U C29G A43U U47A G68C,≤ 0.5
14,A20U C29G C49G G63C C66U,≤ 0.5
15,A20U C29G C66U,≤ 0.5
16,A20U C29U A36C,≤ 0.5
17,A20U C29U C30U C49G C55A,≤ 0.5
18,A20U C30U C34G U53C A57U,≤ 0.5
19,A20U C30U C66U,≤ 0.5
20,A20U C31U G56A C61U,≤ 0.5
21,A20U C33G U35C,≤ 0.5
22,A20U C34A G38A U59A,≤ 0.5
23,A20U C34A G58C C62A,≤ 0.5
